Laboratory results as given in article doi:10.1101/2020.06.10.144725 (bioRxiv, 2020).

Protein sequences, listed by entry. Tags and fused reporters are not part of them. Residues count along the entry.
UniProt O15169: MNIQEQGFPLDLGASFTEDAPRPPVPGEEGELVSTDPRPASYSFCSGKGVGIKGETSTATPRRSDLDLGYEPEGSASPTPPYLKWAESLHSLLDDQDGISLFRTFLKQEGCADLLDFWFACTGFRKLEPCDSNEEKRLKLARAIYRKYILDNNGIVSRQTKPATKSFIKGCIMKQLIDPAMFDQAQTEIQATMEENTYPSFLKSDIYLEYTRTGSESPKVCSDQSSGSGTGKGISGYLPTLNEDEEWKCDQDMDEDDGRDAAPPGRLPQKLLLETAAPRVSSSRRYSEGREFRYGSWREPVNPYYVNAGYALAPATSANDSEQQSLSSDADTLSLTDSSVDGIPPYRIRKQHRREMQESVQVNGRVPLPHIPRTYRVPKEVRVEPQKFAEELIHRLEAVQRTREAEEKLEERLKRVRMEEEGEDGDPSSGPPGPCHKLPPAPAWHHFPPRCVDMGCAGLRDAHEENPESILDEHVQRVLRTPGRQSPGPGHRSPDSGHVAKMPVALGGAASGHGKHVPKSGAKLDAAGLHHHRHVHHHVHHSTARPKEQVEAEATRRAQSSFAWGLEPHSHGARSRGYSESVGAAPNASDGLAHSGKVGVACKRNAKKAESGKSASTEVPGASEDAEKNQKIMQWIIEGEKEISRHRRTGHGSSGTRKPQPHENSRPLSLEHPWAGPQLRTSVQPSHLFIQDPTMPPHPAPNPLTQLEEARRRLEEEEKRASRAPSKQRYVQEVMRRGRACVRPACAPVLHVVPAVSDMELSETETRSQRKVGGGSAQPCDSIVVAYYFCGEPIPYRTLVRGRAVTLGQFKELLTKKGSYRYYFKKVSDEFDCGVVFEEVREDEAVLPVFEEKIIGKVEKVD
UniProt O14641: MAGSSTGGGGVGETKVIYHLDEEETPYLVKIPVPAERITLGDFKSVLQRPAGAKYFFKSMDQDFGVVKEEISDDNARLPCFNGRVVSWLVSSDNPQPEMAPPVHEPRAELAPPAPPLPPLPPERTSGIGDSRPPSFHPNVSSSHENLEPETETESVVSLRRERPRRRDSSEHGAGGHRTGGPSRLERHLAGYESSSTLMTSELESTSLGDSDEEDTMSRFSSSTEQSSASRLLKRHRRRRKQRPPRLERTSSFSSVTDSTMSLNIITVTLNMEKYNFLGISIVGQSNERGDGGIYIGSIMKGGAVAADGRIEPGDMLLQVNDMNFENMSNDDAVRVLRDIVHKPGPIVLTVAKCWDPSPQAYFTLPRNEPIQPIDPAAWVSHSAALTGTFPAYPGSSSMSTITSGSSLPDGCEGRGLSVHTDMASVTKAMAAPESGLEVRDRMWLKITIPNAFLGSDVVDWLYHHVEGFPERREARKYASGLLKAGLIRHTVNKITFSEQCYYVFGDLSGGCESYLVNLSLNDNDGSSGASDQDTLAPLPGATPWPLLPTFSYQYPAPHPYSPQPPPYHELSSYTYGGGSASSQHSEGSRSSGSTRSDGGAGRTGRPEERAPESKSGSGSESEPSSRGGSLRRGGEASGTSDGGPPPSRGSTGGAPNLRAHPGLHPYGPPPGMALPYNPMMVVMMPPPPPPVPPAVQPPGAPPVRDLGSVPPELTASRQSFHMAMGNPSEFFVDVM
UniProt Q9NYQ6, residues 21-3014: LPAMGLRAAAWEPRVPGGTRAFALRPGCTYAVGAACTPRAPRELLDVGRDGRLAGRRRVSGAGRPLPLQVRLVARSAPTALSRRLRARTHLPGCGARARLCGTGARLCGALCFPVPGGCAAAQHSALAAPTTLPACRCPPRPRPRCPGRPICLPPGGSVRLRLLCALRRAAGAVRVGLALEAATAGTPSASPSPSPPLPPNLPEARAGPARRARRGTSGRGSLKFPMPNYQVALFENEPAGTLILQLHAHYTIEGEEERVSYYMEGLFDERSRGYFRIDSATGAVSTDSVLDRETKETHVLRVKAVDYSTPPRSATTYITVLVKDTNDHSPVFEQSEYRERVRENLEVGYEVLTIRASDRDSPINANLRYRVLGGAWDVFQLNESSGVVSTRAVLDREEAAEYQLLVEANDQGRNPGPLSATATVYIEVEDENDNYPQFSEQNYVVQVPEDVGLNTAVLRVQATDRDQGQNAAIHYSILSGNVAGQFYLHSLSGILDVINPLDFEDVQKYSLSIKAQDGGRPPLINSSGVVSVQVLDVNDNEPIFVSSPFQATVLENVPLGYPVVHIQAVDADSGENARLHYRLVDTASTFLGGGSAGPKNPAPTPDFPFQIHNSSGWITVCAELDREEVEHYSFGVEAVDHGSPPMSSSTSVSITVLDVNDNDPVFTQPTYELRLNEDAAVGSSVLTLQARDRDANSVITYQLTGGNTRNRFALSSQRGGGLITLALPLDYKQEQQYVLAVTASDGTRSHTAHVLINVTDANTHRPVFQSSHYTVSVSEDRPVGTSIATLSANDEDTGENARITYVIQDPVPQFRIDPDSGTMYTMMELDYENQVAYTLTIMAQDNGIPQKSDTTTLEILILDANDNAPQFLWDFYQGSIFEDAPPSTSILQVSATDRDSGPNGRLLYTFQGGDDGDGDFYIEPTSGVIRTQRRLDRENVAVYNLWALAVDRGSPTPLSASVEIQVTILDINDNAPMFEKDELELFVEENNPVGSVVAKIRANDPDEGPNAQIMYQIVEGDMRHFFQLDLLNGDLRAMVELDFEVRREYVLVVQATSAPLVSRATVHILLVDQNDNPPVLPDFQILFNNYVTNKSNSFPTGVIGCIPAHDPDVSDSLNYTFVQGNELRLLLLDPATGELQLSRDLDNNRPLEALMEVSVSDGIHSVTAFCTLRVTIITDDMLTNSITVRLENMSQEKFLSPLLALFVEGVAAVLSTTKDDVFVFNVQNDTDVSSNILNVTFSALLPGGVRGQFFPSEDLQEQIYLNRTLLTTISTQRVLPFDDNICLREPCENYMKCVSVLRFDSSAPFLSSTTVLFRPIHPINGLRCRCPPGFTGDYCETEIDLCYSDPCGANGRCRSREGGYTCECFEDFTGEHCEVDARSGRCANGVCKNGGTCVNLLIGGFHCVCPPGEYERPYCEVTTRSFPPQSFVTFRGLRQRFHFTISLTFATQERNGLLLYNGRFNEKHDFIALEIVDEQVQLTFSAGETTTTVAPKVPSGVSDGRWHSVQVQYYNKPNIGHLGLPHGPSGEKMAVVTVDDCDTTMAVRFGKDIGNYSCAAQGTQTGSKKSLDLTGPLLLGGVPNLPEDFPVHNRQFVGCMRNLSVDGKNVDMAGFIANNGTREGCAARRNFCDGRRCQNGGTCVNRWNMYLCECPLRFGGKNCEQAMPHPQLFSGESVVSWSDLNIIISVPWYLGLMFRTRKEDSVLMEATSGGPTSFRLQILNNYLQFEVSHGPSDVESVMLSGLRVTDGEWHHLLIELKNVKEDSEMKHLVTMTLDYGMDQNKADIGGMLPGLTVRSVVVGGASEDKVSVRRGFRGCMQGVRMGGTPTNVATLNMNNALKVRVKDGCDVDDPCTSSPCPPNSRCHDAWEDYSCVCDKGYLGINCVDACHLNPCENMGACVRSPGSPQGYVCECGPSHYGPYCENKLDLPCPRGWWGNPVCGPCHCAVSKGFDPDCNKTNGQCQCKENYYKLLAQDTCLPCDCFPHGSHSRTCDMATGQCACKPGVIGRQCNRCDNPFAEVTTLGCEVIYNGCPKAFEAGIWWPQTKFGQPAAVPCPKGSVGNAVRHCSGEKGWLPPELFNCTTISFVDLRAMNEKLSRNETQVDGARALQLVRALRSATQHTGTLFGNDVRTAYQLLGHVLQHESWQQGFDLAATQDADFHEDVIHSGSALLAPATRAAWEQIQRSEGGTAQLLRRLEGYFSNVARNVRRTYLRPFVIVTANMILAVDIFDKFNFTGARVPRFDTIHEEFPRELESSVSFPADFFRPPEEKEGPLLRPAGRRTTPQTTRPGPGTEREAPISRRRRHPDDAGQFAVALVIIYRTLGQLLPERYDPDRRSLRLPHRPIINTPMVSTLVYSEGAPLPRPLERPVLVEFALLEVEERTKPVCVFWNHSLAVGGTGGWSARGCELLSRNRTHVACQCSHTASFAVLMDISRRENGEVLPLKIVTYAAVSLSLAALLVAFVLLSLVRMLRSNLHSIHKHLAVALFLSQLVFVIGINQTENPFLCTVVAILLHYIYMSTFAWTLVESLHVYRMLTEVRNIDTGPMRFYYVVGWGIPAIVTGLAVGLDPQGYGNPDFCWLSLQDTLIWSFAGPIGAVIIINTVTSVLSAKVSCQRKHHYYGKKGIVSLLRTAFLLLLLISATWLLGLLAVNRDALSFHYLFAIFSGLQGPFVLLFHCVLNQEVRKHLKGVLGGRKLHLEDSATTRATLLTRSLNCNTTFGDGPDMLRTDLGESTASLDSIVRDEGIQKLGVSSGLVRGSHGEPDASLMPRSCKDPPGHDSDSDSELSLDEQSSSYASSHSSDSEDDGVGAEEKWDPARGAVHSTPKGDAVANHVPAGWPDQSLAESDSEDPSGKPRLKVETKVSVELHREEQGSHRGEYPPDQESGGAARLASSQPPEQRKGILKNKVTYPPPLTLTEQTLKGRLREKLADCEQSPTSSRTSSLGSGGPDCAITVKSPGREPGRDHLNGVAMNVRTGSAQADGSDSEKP
UniProt O75197, residues 32-1615: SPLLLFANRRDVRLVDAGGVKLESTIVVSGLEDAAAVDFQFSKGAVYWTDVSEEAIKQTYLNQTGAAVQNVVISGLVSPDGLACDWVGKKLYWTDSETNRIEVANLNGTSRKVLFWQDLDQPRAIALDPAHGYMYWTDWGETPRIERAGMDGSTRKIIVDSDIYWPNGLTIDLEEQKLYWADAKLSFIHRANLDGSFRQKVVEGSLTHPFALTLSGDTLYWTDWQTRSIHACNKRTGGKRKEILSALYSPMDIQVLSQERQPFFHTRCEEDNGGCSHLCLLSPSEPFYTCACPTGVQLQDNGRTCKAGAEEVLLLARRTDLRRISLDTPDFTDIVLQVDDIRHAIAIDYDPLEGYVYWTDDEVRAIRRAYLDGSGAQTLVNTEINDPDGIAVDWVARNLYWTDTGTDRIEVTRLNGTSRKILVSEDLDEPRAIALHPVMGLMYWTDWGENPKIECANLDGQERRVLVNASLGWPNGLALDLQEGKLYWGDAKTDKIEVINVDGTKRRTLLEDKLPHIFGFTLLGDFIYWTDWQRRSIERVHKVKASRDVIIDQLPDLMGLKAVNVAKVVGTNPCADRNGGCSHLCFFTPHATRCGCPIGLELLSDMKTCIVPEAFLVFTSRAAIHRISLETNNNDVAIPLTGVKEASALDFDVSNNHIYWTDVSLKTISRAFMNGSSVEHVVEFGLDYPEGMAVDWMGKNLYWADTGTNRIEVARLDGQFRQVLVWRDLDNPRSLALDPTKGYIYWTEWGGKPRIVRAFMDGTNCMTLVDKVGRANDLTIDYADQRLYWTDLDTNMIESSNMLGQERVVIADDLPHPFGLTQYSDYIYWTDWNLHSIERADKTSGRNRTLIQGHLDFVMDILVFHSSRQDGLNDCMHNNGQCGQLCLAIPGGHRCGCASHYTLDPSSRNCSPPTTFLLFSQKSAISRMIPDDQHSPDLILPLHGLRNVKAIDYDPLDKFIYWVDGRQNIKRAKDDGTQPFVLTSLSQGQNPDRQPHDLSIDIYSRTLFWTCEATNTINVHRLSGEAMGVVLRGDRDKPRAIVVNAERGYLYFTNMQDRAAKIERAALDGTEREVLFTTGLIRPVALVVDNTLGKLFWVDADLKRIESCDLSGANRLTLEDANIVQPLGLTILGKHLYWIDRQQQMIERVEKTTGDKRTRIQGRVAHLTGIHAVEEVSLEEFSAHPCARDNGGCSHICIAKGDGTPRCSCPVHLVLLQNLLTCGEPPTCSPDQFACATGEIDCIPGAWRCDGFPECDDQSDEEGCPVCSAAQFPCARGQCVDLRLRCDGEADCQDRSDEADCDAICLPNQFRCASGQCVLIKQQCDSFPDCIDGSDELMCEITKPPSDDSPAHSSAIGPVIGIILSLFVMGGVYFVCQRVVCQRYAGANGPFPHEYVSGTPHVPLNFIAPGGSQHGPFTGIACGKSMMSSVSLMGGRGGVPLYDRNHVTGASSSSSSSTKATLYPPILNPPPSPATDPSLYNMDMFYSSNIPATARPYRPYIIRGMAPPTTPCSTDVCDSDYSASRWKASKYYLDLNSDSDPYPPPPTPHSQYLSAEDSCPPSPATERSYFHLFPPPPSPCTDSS

T1: Nkd1-BirA* (wild type) (murine) (UniProt Q99MH6)
T1 sequence: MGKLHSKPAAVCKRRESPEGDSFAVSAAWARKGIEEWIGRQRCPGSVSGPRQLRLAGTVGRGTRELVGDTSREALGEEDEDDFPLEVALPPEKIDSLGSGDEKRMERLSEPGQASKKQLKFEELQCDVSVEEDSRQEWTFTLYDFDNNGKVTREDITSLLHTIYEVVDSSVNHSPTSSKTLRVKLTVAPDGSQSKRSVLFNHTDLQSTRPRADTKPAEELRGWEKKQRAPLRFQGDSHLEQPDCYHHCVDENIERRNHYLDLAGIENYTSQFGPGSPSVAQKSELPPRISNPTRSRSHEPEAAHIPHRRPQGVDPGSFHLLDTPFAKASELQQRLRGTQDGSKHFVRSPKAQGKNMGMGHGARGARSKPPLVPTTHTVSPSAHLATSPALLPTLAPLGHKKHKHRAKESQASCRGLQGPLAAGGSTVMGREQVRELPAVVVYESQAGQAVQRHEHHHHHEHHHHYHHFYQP

B1: VANGL1 (endogenous) (protein, UniProt Q8TAA9 1-524)
chain: MDTESTYSGYSYYSSHSKKSHRQGERTRERHKSPRNKDGRGSEKSVTIQPPTGEPLLGNDSTRTEEVQDDNWGETTTAITGTSEHSISQEDIARISKDMEDSVGLDCKRYLGLTVASFLGLLVFLTPIAFILLPPILWRDELEPCGTICEGLFISMAFKLLILLIGTWALFFRKRRADMPRVFVFRALLLVLIFLFVVSYWLFYGVRILDSRDRNYQGIVQYAVSLVDALLFIHYLAIVLLELRQLQPMFTLQVVRSTDGESRFYSLGHLSIQRAALVVLENYYKDFTIYNPNLLTASKFRAAKHMAGLKVYNVDGPSNNATGQSRAMIAAAARRRDSSHNELYYEEAEHERRVKKRKARLVVAVEEAFIHIQRLQAEEQQKAPGEVMDPREAAQAIFPSMARALQKYLRITRQQNYHSMESILQHLAFCITNGMTPKAFLERYLSAGPTLQYDKDRWLSTQWRLVSDEAVTNGLRDGIVFVLKCLDFSLVVNVKKIPFIILSEEFIDPKSHKFVLRLQSETSV
B2: AMER1 (endogenous) (protein, UniProt Q5JTC6 1-1135)
chain: METQKDEAAQAKGAAASGSTREQTAEKGAKNKAAEATEGPTSEPSSSGPGRLKKTAMKLFGGKKGICTLPSFFGGGRSKGSGKGSSKKGLSKSKTHDGLSEAAHGPEDVVSEGTGFSLPLPELPCQFPSSQSAHGALETGSRCKTSVAGATEKAVAEKFPSMPKPKKGLKGFFSSIRRHRKSKVTGAEQSEPGAKGPERVRARPHEHVSSAPQVPCFEETFQAPRKENANPQDAPGPKVSPTPEPSPPATEKMACKDPEKPMEACASAHVQPKPAPEASSLEEPHSPETGEKVVAGEVNPPNGPVGDPLSLLFGDVTSLKSFDSLTGCGDIIAEQDMDSMTDSMASGGQRANRDGTKRSSCLVTYQGGGEEMALPDDDDEEEEEEEEVELEEEEEEVKEEEEDDDLEYLWETAQMYPRPNMNLGYHPTTSPGHHGYMLLDPVRSYPGLAPGELLTPQSDQQESAPNSDEGYYDSTTPGFEDDSGEALGLVRRDCLPRDSYSGDALYEFYEPDDSLENSPPGDDCLYDLHGRSSEMFDPFLNFEPFLSSRPPGAMETEEERLVTIQKQLLYWELRREQLEAQEARAREAHAREAHAREAYTREAYGREAYAREAHTWEAHGREARTREAQAREVRCRETQVRETQARQEKPVLEYQMRPLGPSVMGLAAGVSGTSQISHRGITSAFPTTASSEPDWRDFRPLEKRYEGTCSKKDQSTCLMQLFQSDAMFEPDMQEANFGGSPRRAYPTYSPPEDPEEEEVEKEGNATVSFSQALVEFTSNGNLFSSMSCSSDSDSSFTQNLPELPPMVTFDIADVERDGEGKCEENPEFHNDEDLAASLEAFELGYYHKHAFNNYHSRFYQGLPWGVSSLPRYLGLPGLHPRPPPAAMALNRRSRSLDTAETLEMELSNSHLVQGYLESDELQAQQEDSDEEDEEEEEGEWSRDSPLSLYTEPPGAYDWPAWAPCPLPVGPGPAWISPNQLDRPSSQSPYRQATCCIPPMTMSISLSVPESRAPGESGPQLARPSHLHLPMGPCYNLQPQASQSMRARPRDVLLPVDEPSCSSSSGGFSPSPLPQAKPVGITHGIPQLPRVRPEHPQPQPTHYGPSSLDLSKERAEQGASLATSYSSTAMNGNLAK
B3: DVL1 (endogenous) (protein, UniProt O14640 1-695)
chain: MAETKIIYHMDEEETPYLVKLPVAPERVTLADFKNVLSNRPVHAYKFFFKSMDQDFGVVKEEIFDDNAKLPCFNGRVVSWLVLAEGAHSDAGSQGTDSHTDLPPPLERTGGIGDSRPPSFHPNVASSRDGMDNETGTESMVSHRRERARRRNREEAARTNGHPRGDRRRDVGLPPDSASTALSSELESSSFVDSDEDGSTSRLSSSTEQSTSSRLIRKHKRRRRKQRLRQADRASSFSSITDSTMSLNIVTVTLNMERHHFLGISIVGQSNDRGDGGIYIGSIMKGGAVAADGRIEPGDMLLQVNDVNFENMSNDDAVRVLREIVSQTGPISLTVAKCWDPTPRSYFTVPRADPVRPIDPAAWLSHTAALTGALPRYGTSPCSSAVTRTSSSSLTSSVPGAPQLEEAPLTVKSDMSAVVRVMQLPDSGLEIRDRMWLKITIANAVIGADVVDWLYTHVEGFKERREARKYASSLLKHGFLRHTVNKITFSEQCYYVFGDLCSNLATLNLNSGSSGTSDQDTLAPLPHPAAPWPLGQGYPYQYPGPPPCFPPAYQDPGFSYGSGSTGSQQSEGSKSSGSTRSSRRAPGREKERRAAGAGGSGSESDHTAPSGVGSSWRERPAGQLSRGSSPRSQASATAPGLPPPHPTTKAYTVVGGPPGGPPVRELAAVPPELTGSRQSFQKAMGNPCEFFVDIM

biological target: T1, Nkd1-BirA* (wild type) (murine); test: proximity labelling

Row | Molecule | binding
1 | p62 autophagy receptor (endogenous) (from UniProt Q13501 1-440) | binds

biological target: T1, Nkd1-BirA* (wild type) (murine); test: proximity labelling; remark: another data set of the same source

Row | Molecule | binding
2 | Axin1 (endogenous) (from UniProt O15169 1-862) | binds
3 | ROR2 (endogenous) (from UniProt Q01974 34-943) (receptor) | binds
4 | DVL2 (endogenous) (from UniProt O14641 1-736) | binds
5 | p62 autophagy receptor (endogenous) (from UniProt Q13501 1-440) | binds
6 | Notch1 (endogenous) (from UniProt P46531) (receptor) | binds
7 | CELSR1 (endogenous) (from UniProt Q9NYQ6 21-3014) | binds
8 | LRP5 (endogenous) (from UniProt O75197 32-1615) (receptor) | binds
9 | β-catenin (endogenous) (from UniProt P35222 1-781) | binds
10 | Notch2 (endogenous) (from UniProt Q04721) (receptor) | binds
11 | B1 | binds
12 | B2 | binds
13 | B3 | binds

Results are given in words; binding and its absence hold for the method and conditions named. Binding seen in cells or lysates may run through a third protein. Here binding means that the protein was enriched with, or labelled near, the bait; the list need not be complete.
